Laboratory results: paper PMC5215799
Results are given in words; binding and its absence hold for the method and conditions named. Binding seen in cells or lysates may run through a third protein. These calls come from enrichment with a bait or labelling near it, and not all partners need be listed.

Chains of the proteins cited; added tags and fusions are not shown. Residues count along the entry.
UniProt P08113, residues 22-802: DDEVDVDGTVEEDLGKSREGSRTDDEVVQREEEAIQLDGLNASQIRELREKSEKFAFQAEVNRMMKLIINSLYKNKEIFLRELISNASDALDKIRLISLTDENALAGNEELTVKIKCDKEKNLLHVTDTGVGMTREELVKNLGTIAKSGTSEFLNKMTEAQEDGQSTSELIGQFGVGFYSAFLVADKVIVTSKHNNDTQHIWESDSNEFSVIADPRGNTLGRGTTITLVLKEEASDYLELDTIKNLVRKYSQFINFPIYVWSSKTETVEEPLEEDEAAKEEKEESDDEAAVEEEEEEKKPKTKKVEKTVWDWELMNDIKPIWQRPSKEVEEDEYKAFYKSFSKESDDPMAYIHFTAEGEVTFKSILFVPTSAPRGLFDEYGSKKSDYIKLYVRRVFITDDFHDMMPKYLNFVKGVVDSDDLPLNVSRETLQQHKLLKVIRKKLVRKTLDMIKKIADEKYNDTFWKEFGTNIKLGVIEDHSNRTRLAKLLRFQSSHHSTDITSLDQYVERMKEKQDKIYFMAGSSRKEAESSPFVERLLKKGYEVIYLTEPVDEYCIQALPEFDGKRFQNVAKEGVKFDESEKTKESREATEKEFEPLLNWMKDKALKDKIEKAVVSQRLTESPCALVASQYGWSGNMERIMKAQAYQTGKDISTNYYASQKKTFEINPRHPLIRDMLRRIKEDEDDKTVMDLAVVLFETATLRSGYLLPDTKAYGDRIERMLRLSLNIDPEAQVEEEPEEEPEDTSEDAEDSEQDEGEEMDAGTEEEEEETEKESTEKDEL

target: HA-tagged gp96 (UniProt P08113); experiment: affinity purification with mass spectrometry; RIPA lysate (500 μg) of preB leukemia cells stably expressing HA-tagged gp96, precleared with normal IgG on protein G beads, then anti-HA (clone HA-7) on protein G beads 3 hours at 4°C; eluate on SDS-PAGE, LC-MS/MS

| Binder | binding |
| --- | --- |
| Caprin1 (protein, UniProt Q60865 1-707) MPSATSHSGSGSKSSGPPPPSGSSGSEAAAGAAAPASQHPATGTGAVQTEAMKQILGVIDKKLRNLEKKKGKLDDYQERMNKGERLNQDQLDAVSKYQEVTNNLEFAKELQRSFMALSQDIQKTIKKTARREQLMREEAEQKRLKTVLELQYVLDKLGDDDVRTDLKQGLSGVPILSEEELSLLDEFYKLVDPERDMSLRLNEQYEHASIHLWDLLEGKEKPVCGTTYKALKEIVERVFQSNYFDSTHNHQNGLCEEEEAASAPTVEDQVAEAEPEPAEEYTEQSEVESTEYVNRQFMAETQFSSGEKEQVDEWTVETVEVVNSLQQQPQAASPSVPEPHSLTPVAQSDPLVRRQRVQDLMAQMQGPYNFIQDSMLDFENQTLDPAIVSAQPMNPTQNMDMPQLVCPQVHSESRLAQSNQVPVQPEATQVPLVSSTSEGYTASQPLYQPSHATEQRPQKEPMDQIQATISLNTDQTTASSSLPAASQPQVFQAGTSKPLHSSGINVNAAPFQSMQTVFNMNAPVPPANEPETLKQQSQYQATYNQSFSSQPHQVEQTELQQDQLQTVVGTYHGSQDQPHQVPGNHQQPPQQNTGFPRSSQPYYNSRGVSRGGSRGARGLMNGYRGPANGFRGGYDGYRPSFSNTPNSGYSQSQFTAPRDYSGYQRDGYQQNFKRGSGQSGPRGAPRGRGGPPRPNRGMPQMNTQQVN | binds |
| CNPY3 (protein, UniProt Q9DAU1 27-276) APKLGPSPAGAEETDWVRLPSKCEVCKYVAVELKSAFEETGKTKEVIDTGYGILDGKGSGVKYTKSDLRLIEVTETICKRLLDYSLHKERTGSNRFAKGMSETFETLHNLVHKGVKVVMDIPYELWNETSAEVADLKKQCDVLVEEFEEVIEDWYRNHQEEDLTEFLCANHVLKGKDTSCLAERWSGKKGDIASLGGKKSKKKRSGVKGSSSGSSKQRKELGGLGEDANAEEEEGVQKASPLPHSPPDEL | binds |
| CNPY2 (protein, UniProt Q9QXT0 21-182) RRSQDLHCGACRALVDELEWEIARVDPKKTIQMGSFRINPDGSQSVVEVPYARSEAHLTELLEEVCDRMKEYGEQIDPSTHRKNYVRVVSRNGESSELDLQGIRIDSDISGTLKFACESIVEEYEDELIEFFSREADNVKDKLCSKRTDLCDHALHRSHDEL | binds |
| CNPY4 (protein, UniProt Q8BQ47 28-245) EATKEEEDDTERLPSKCEVCKLLSMELQEALSRTGRSREVLELGQVLDTGKRKRHVPYSLSETRLEEALENLCERILDYNVHAERKGSLRYAKGQSQTMATLKGLVQKGVKVDLGIPLELWDEPSVEVTFLKKQCETMLEEFEDVVGDWYFHHQEQPLQHFLCERHVLPASETACLREAWTGKEKISDGQEEADDEEEEEEEEITKTSGNPKHDPEDL | binds |

Results, then the binder that gave them:

| binding | Binder |
| --- | --- |
| binds | Dnajc3 (protein, UniProt Q91YW3 32-504) GVNADVEKHLELGKKLLAAGQLADALSQFHAAVDGDPDNYIAYYRRATVFLAMGKSKAALPDLTKVIALKMDFTAARLQRGHLLLKQGKLDEAEDDFKKVLKSNPSEQEEKEAESQLVKADEMQRLRSQALDAFDGADYTAAITFLDKILEVCVWDAELRELRAECFIKEGEPRKAISDLKAASKLKSDNTEAFYKISTLYYQLGDHELSLSEVRECLKLDQDHKRCFAHYKQVKKLNKLIESAEELIRDGRYTDATSKYESVMKTEPSVAEYTVRSKERICHCFSKDEKPVEAIRICSEVLQMEPDNVNALKDRAEAYLIEEMYDEAIQDYEAAQEHNENDQQIREGLEKAQRLLKQSQKRDYYKILGVKRNAKKQEIIKAYRKLALQWHPDNFQNEEEKKKAEKKFIDIAAAKEVLSDPEMRKKFDDGEDPLDAESQQGGGGNPFHRSWNSWQGFNPFSSGGPFRFKFHFN |
| binds | MesD (protein, UniProt Q9ERE7 30-224) ADTPGEATPPPRKKKDIRDYNDADMARLLEQWEKDDDIEEGDLPEHKRPSAPIDFSKLDPGKPESILKMTKKGKTLMMFVTVSGNPTEKETEEITSLWQGSLFNANYDVQRFIVGSDRAIFMLRDGSYAWEIKDFLVSQDRCAEVTLEGQMYPGKGGGSKEKNKTKPEKAKKKEGDPKPRASKEDNRAGSRREDL |
| binds | Ganab (protein, UniProt Q8BHN3 33-944) VDRSNFKTCDESSFCKRQRSIRPGLSPYRALLDTLQLGPDALTVHLIHEVTKVLLVLELQGLQKNMTRIRIDELEPRRPRYRVPDVLVADPPTARLSVSGRDDNSVELTVAEGPYKIILTAQPFRLDLLEDRSLLLSVNARGLMAFEHQRAPRVPQESKDPAEGNGAQPEATPGDGDKPEETQEKAEKDEPGAWEETFKTHSDSKPYGPTSVGLDFSLPGMEHVYGIPEHADSLRLKVTEGGEPYRLYNLDVFQYELNNPMALYGSVPVLLAHSFHRDLGIFWLNAAETWVDISSNTAGKTLFGKMLDYLQGSGETPQTDIRWMSESGIIDVFLMLGPSVFDVFRQYASLTGTQALPPLFSLGYHQSRWNYRDEADVLEVDQGFDDHNMPCDVIWLDIEHADGKRYFTWDPTRFPQPLNMLEHLASKRRKLVAIVDPHIKVDSGYRVHEELRNHGLYVKTRDGSDYEGWCWPGSASYPDFTNPRMRAWWSNMFSFDNYEGSAPNLYVWNDMNEPSVFNGPEVTMLKDAVHYGGWEHRDIHNIYGLYVHMATADGLIQRSGGIERPFVLSRAFFSGSQRFGAVWTGDNTAEWDHLKISIPMCLSLALVGLSFCGADVGGFFKNPEPELLVRWYQMGAYQPFFRAHAHLDTGRREPWLLASQYQDAIRDALFQRYSLLPFWYTLFYQAHKEGFPVMRPLWVQYPEDMSTFSIEDQFMLGDALLIHPVSDAGAHGVQVYLPGQEEVWYDIQSYQKHHGPQTLYLPVTLSSIPVFQRGGTIVPRWMRVRRSSDCMKDDPITLFVALSPQGTAQGELFLDDGHTFNYQTRHEFLLRRFSFSGSTLVSSSADPKGHLETPIWIERVVIMGAGKPAAVVLQTKGSPESRLSFQHDPETSVLILRKPGVSVASDWSIHLR |
| binds | Plekho2 (protein, UniProt Q8K124 1-495) MEEESIKEGSEKPRGARTADKAGWIKKSSGGLLGLWKDRYLLLCQAQLLVYENEDEQKCVETVELGSYEKCQDLRTLLKRKHHRFILLRSPGNKVSDIKFQAPSGEEKESWIKALNEGINRGKNKAFDEVKVDKTCALEHVTRNRVRGGQRRRPPTRIHLKEVASAASDGLSRLDLDVPDSGPPVFAPLSDISEDQPQEPPRALMPPVKPSPGPETSAVEDSKETPAGERALTPDSASSGANPESQEDAETPAKEDSDVKSLPNSTLSEKLKVSWENPSPEKPSAPESAQLSSSETPEATPRESKKPPAPPPKILSEKMKACMSGVDASGSSQSSEAPETTSPEPTQVSVNGMDDGPESALQAMGIPGPAPEDAAASPALPFSDLPSQFHPRSSSLGDLLRESPQHPRLPKEKLYRAQLEVKVASKQTEKLLNQVLGSEPPPVCAESLLSQAVEQLRQATQVLQEMRDLGELNQETPGLVQKRKELVTLYRRSAP |
| binds | Psmb3 (protein, UniProt Q9R1P1 1-205) MSIMSYNGGAVMAMKGKNCVAIAADRRFGIQAQMVTTDFQKIFPMGDRLYIGLAGLATDVQTVAQRLKFRLNLYELKEGRQIKPYTLMSMVANLLYEKRFGPYYTEPVIAGLDPKTFKPFICSLDLIGCPMVTDDFVVSGTCSEQMYGMCESLWEPNMDPEHLFETISQAMLNAVDRDAVSGMGVIVHVIEKDKITTRTLKARMD |
